The values below come from patent publication US11649222B2, “Compounds” (UNIVERSITETET I OSLO, priority 2016, dated 2023).

The nature of this series: Therapeutic index and antibacterial score ASx. Particulars: for ASx: antibacterial score, equation (3); for TI = IC50h/MICx: therapeutic index ratio.

For `OC[C@H]1OC(O)[C@H](n2cc(CN(Cc3ccccn3)Cc3ccccn3)nn2)[C@@H](O)[C@@H]1O` (stereo partly drawn) [Example 84, (3R,4R,5S,6R)-3-(4-((bis(pyridin-2-ylmethyl)amino)methyl)-1H-1,2,3-triazol-1-yl)-6-(hydroxymethyl)tetrahydro-2H-pyran-2,4,5-triol], the ASx was found to be 0.82 and the “TI = IC50h/MICx” value was 0.5.

Regarding `O=C(O)CN1CCN(CC(=O)O)CCN([C@H](CO)[C@H](O)CO)CCN(CC(=O)O)CC1` [Butrol, reference compound], the ASx is −1.36 and the “TI = IC50h/MICx” value was 1.2. For `O=C(O)C[C@@H]1CC[C@H](NC(=O)c2ccc(CN(Cc3ccccn3)Cc3ccccn3)nc2)B(O)O1` [Example 163, 2-((3R,6S)-3-(6-((Bis(pyridin-2-ylmethyl)amino)methyl)nicotinamido)-2-hydroxy-1,2-oxaborinan-6-yl)acetic acid], in that order: 1.35 and 3.2.

Regarding `C[C@H](CS)C(=O)N1CCC[C@H]1C(=O)O` [Captopril, reference compound], the ASx is −9.14. For `CN[C@H](CC(C)C)C(=O)N[C@H]1C(=O)N[C@@H](CC(N)=O)C(=O)N[C@H]2C(=O)N[C@H]3C(=O)N[C@H](C(=O)N[C@H](C(=O)O)c4cc(O)cc(O)c4-c4cc3ccc4O)[C@H](O)c3ccc(c(Cl)c3)Oc3cc2cc(c3O[C@@H]2O[C@H](CO)[C@@H](O)[C@H](O)[C@H]2O[C@H]2C[C@](C)(N)[C@H](O)[C@H](C)O2)Oc2ccc(cc2Cl)[C@H]1O` [Vancomycin, reference compound], the ASx is on record as −7.83 and the “TI = IC50h/MICx” value was determined as 0.02. For `O=C(Cc1ccc(NC(=O)c2ccc(CN(Cc3ccccn3)Cc3ccccn3)nc2)cc1)NC(CO)(CO)CO` [Example 100, 6-((bis(pyridin-2-ylmethyl)amino)methyl)-N-(4-(2-(1,3-dihydroxy-2-(hydroxymethyl)propan-2-ylamino)-2-oxoethyl)phenyl)nicotinamide], the ASx was found to be 1.44 and the “TI = IC50h/MICx” value is reported as 3.8. On to `OC1O[C@H](Cn2cc(CN(CCN(Cc3ccccn3)Cc3ccccn3)Cc3ccccn3)nn2)[C@H](O)[C@H](O)[C@H]1O` (some centres unmarked) [Example 91], for which the ASx is recorded as 1.63 and the “TI = IC50h/MICx” value came out at 5.3.

For `OCc1ccc(CN(Cc2ccccn2)Cc2ccccn2)nc1` [Example 14, (6-((bis(pyridin-2-ylmethyl)amino)methyl)pyridin-3-yl) methanol], the ASx was 0.49 and the “TI = IC50h/MICx” value was 0.4. Turning to `CN(C[C@H](O)[C@@H](O)[C@H](O)[C@H](O)CO)C(=O)c1ccc(CN(Cc2ccccn2)Cc2ccccn2)nc1` [Example 26, 6-((bis(pyridin-2-ylmethyl)amino)methyl)-N-methyl-N-((2S,3R,4R,5R)-2,3,4,5,6-pentahydroxyhexyl)nicotinamide], the ASx is 1.48. Same read-out and setting: the figure for `O=C(O)CN(CCN(CC(=O)O)CC(=O)O)CC(=O)O` [EDTA, ethylenediaminetetra-acetic acid, reference compound] is −2.27. Regarding `c1ccc(CN(CCN(Cc2ccccn2)Cc2ccccn2)Cc2ccccn2)nc1` [TPEN, N,N,N′,N′-tetrakis(2-pyridylmethyl) ethylenediamine, reference compound], the ASx was −0.75 and the “TI = IC50h/MICx” value stood at 0.5. Consider `O=C(CN(CCN(Cc1ccccn1)Cc1ccccn1)Cc1ccccn1)Nc1ccc(CC(=O)NC(CO)(CO)CO)cc1` [Example 24, 2-((2-(bis(pyridin-2-ylmethyl)amino)ethyl)(pyridin-2-ylmethyl)amino)-N-(4-(2-(1,3-dihydroxy-2-(hydroxymethyl)propan-2-ylamino)-2-oxoethyl)phenyl)acetamide], for which the ASx was 1.18 and the “TI = IC50h/MICx” value amounted to 1.9.

Turning to `CN(C[C@H](O)[C@@H](O)[C@H](O)[C@H](O)CO)C(=O)Cc1ccc(-n2cc(CN(Cc3ccccn3)Cc3ccccn3)nn2)cc1` [Example 96, 2-(4-(4-((bis(pyridin-2-ylmethyl)amino)methyl)-1H-1,2,3-triazol-1-yl)phenyl)-N-methyl-N-((2S,3R,4R,5R)-2,3,4,5,6-pentahydroxyhexyl)acetamide], the ASx stood at 0.81 and the “TI = IC50h/MICx” value is listed as 0.9. The like results for `O=C(c1ccc(CN(Cc2ccccn2)Cc2ccccn2)nc1)N1CCNCC1` [Example 105, (6-((bis(pyridin-2-ylmethyl)amino)methyl)pyridin-3-yl)(piperazin-1-yl)methanone] were, in that order, 1.40 and 3.2. Regarding `COC(=O)c1ccc(CN(Cc2ccccn2)Cc2ccccn2)nc1` [Example 12, methyl 6-((bis(pyridin-2-ylmethyl)amino)methyl)nicotinate], the ASx was determined as 0.57 and the “TI = IC50h/MICx” value is given as 0.5. Turning to `CN(C[C@H](O)[C@@H](O)[C@H](O)[C@H](O)CO)C(=O)Cc1ccc(NC(=O)CN(CCN(Cc2ccccn2)Cc2ccccn2)Cc2ccccn2)cc1` [Example 25, 2-(4-(2-((2-(bis(pyridin-2-ylmethyl)amino)ethyl)(pyridin-2-ylmethyl)amino)acetamido)phenyl)-N-methyl-N-(2,3,4,5,6-pentahydroxyhexyl)acetamide], the ASx is 1.43 and the “TI = IC50h/MICx” value was 3.7. As for `O=C(Cc1ccc(-n2cc(CN(Cc3ccccn3)Cc3ccccn3)nn2)cc1)NC(CO)(CO)CO` [Example 98, 2-(4-(4-((bis(pyridin-2-ylmethyl)amino)methyl)-1H-1,2,3-triazol-1-yl)phenyl)-N-(1,3-dihydroxy-2-(hydroxymethyl)propan-2-yl)acetamide], the ASx turned out to be 1.11 and the “TI = IC50h/MICx” value is on record as 2.1. Take `CN(C[C@H](O)[C@@H](O)[C@H](O)[C@H](O)CO)C(=O)Cc1ccc(NC(=O)c2ccc(CN(Cc3ccccn3)Cc3ccccn3)nc2)cc1` [Example 99, 6-((bis(pyridin-2-ylmethyl)amino)methyl)-N-(4-(2-(methyl((2S,3R,4R,5R)-2,3,4,5,6-pentahydroxyhexyl)amino)-2-oxoethyl)phenyl)nicotinamide]: the ASx is 1.74 and the “TI = IC50h/MICx” value is recorded as 7. On to `O=C(NC(CO)(CO)CO)c1ccc(CN(Cc2ccccn2)Cc2ccccn2)nc1` [Example 103, 6-((bis(pyridin-2-ylmethyl)amino)methyl)-N-(1,3-dihydroxy-2-(hydroxymethyl)propan-2-yl)nicotinamide], for which the ASx worked out at 1.23 and the “TI = IC50h/MICx” value was 2.2.
